Measured values taken from patent US6747009B2, “Peptidomimetic glutathione analogs” (Universiteit Leiden, priority 2002, dated 2004).
The name of at least one read-out is uncertain.

System: bovine kidney γ-glutamyl transpeptidase
Test: Stability towards γ-glutamyl transpeptidase (RP-HPLC disappearance of parent)
Format: in vitro ADME
Settings: 250 μM compound, 0.25 mg/ml bovine kidney γGT, 37° C., pH 7.4
Experimental: Peptide isosteres were incubated with 0.25 mg/ml bovine γ-glutamyltranspeptidase in 0.1M Tris-HCl buffer pH=7.4. At the appropriate time-point a sample (100 μL) was taken, heat inactivated and stored on ice until HPLC analysis. Disappearance of the indicated compounds was determined by RP-HPLC. Open markers indicate γGT sensitive compounds, closed markers are γGT stabilized.
The rate of degradation was determined by incubating 250 μM of GluPhg-Benzyl, RedPhg-Benzyl and UtPhg-Benzyl at 37° C. with 0.25 mg/ml bovine kidney γ-glutamyl transpeptidase in 0.1 M Tri-HCl buffer, pH 7.4, supplemented with 0.1 mM EDTA. At selected time-intervals, a 100 μL sample was taken, heat-inactivated, and stored on ice until HPLC-analysis. […] Disappearance of the parent peak was determined by UV absorbency at […]. Remaining percentage of the parent compounds was determined as ratio of peak areas relative to the initial (t=0min) value.
The rate of degradation was determined by incubating 250 μM of the GS-EA analogues at 37° C. with 0.25 mg/ml bovine kidney γ-glutamyltranspeptidase in 0.1M Tris-HCl buffer, pH=7.4, supplemented with 0.1mM EDTA. […] Disappearance of the present peak and emergence of the corresponding dipeptide-EA conjugate was detected by UV absorbency at 270 nm. Remaining percentage of the parent compounds was determined as ratio of peak areas relative to the initial (t=0 min) value. […]

Compound: γ-Glu[2-amino-1-mercapto(S-EA)-6-hexanoic acid]-OH [IV]
- t½ of γGT mediated hydrolysis: approximately equal to the half-life of GS-EA

Compound: CCC(CSC[C@H](NC(=O)CC[C@H](N)C(=O)O)C(=O)NCC(=O)O)C(=O)c1ccc(OCC(=O)O)c(Cl)c1Cl (some centres unmarked) [I, γ-Glu[Cys(EA)-Gly-OH]—OH, reference compound]
- t½ of γGT mediated hydrolysis: 8 min
